Results as given in publication PMC9247460.
Results are given in words; binding and its absence hold for the method and conditions named. In cells and extracts the contact can be indirect. Here binding means that the protein was enriched with, or labelled near, the bait; the list need not be complete.

Sequences of proteins named here, by UniProt entry; tags and fusion partners are left off. A change or cut given only in a name is not applied to a line headed by its entry.
UniProt P31946: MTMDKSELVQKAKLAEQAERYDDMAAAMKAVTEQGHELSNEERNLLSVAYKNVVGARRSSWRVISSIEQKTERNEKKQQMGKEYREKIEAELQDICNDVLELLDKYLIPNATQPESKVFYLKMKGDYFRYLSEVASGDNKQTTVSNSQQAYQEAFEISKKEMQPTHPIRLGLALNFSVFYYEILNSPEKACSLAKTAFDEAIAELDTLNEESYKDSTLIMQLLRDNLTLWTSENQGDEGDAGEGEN
UniProt Q09472: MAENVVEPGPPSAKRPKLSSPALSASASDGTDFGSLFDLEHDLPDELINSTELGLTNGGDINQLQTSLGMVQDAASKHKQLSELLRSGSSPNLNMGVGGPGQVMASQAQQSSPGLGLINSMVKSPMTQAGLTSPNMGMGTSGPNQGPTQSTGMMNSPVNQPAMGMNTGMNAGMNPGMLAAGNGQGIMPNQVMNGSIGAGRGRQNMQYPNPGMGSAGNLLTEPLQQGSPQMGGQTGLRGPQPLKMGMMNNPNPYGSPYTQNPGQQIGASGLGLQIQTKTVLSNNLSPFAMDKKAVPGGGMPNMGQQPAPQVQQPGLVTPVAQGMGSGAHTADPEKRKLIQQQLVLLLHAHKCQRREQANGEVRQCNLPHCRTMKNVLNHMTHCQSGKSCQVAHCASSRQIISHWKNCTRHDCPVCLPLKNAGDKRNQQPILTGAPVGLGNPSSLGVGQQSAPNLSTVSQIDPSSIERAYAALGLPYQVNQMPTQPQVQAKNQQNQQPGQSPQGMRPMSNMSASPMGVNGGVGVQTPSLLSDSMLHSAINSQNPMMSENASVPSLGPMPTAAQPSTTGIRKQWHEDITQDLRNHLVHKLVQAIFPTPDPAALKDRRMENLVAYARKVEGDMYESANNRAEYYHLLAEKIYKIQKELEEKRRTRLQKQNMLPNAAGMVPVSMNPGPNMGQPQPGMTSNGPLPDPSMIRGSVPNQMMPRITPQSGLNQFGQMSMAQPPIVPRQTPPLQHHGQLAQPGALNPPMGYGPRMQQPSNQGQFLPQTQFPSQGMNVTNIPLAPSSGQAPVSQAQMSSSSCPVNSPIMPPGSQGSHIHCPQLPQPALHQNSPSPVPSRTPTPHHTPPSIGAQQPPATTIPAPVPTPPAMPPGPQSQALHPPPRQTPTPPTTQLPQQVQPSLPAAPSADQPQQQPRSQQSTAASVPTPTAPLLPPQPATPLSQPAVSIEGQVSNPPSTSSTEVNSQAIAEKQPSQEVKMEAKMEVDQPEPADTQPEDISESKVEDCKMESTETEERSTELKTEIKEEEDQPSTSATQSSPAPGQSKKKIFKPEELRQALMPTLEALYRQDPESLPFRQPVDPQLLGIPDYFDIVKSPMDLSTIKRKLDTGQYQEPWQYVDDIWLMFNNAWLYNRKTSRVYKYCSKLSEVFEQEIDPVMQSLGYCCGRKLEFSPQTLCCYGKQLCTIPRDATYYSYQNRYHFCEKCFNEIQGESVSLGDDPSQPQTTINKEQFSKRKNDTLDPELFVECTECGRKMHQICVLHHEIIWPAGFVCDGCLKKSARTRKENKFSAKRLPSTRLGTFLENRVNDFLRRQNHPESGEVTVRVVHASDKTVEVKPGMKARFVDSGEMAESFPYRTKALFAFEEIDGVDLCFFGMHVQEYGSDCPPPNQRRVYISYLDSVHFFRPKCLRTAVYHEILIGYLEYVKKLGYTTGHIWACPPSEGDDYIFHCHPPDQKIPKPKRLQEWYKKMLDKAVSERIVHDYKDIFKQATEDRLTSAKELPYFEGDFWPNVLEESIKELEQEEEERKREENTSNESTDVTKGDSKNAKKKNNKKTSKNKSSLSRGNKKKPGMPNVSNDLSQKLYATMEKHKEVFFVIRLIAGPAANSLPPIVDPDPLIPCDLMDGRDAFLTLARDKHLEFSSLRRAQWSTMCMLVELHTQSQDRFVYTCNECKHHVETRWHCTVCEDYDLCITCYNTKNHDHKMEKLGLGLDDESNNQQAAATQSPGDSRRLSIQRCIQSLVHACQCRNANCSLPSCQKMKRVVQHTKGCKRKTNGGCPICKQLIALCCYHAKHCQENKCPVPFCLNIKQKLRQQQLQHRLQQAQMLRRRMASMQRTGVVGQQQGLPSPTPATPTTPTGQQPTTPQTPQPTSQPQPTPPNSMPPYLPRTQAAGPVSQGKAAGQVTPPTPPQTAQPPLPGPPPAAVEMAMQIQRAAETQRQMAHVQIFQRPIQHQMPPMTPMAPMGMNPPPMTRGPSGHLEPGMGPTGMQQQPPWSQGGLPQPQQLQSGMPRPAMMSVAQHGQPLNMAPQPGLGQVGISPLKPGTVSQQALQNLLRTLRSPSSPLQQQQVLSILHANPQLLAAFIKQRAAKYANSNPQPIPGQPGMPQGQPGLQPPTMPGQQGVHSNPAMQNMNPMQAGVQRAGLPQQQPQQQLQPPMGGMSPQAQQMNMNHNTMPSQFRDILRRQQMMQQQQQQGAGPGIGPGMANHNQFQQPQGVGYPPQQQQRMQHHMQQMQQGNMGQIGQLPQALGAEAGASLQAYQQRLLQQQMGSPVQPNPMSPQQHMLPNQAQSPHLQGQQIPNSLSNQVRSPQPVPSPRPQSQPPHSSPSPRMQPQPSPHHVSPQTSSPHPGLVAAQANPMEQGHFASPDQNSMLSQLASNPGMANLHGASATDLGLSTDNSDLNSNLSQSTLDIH

Molecular target: 14-3-3β/α (YWHAB) (human (endogenous in U87MG)) (UniProt P31946)
Assay: affinity purification with mass spectrometry; Co-IP with anti-14-3-3β/α antibody from U87MG cell extracts, silver stain, specific protein band analysed by tandem mass spectrometry (LC-MS/MS)

- binding: binds
Substance: E1A binding protein p300 (EP300) (from UniProt Q09472 1-2414)
